The supplement of paper PMC6078165
Values are relative to the signal before dosing, not to a vehicle control; the signal also falls without drug.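 Fibroblast labels name human fibroblasts: mostly primary ones from tissues such as uterus (C12385, HUF), lung (H6013), bone (Hs27A), adrenal (HADF) and skin (WS1), plus mammary HMF and breast cancer-associated Hs343T. The cancer cells are basal-like or mesenchymal-like triple-negative breast cancer lines. The paper calls a changed response a hit when it shifts by more than 3x the replicate standard deviation. The tissue of the other fibroblasts is not given here.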

Test system: MDAMB468
Assay: relative JC-1 red fluorescence (viability) vs pre-drug, coculture with fibroblast (fraction); higher = more viable cancer cells
Method: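 JC-1 labelled TNBC cells cocultured 1:1 (1,500 cells each) with CellTrace Violet stained primary or stromal fibroblasts in 384-well plates in FluoroBrite medium, treated with one of 42 anticancer drugs at 0.1, 1, 10 or 100 uM. JC-1 red fluorescence (mitochondrial integrity in cancer cells only) was read by plate reader every 8 h for 72 h. Values are normalised to each well's pre-drug value. The stock of one drug was tenfold lower, so its dose labels may be too high.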

CC[C@]1(O)C[C@H]2CN(CCc3c([nH]c4ccccc34)[C@@](C(=O)OC)(c3cc4c(cc3OC)N(C=O)[C@H]3[C@@](O)(C(=O)OC)[C@H](OC(C)=O)[C@]5(CC)C=CCN6CC[C@]43[C@@H]65)C2)C1 [Vincristine]
relative JC-1 red fluorescence
Conditions	8 h	16 h	24 h	32 h	40 h	48 h	56 h	64 h	72 h
0.1 µM, coculture fibroblast: C12385	0.8599	0.8769	0.9069	0.896	0.884	0.94	0.935	0.971	0.874
0.1 µM, coculture fibroblast: H6013	0.8627	0.874	0.851	0.8631	0.879	0.912	0.908	0.92	0.868
0.1 µM, coculture fibroblast: H6019	0.871	0.884	0.926	0.918	0.817	0.95	0.936	0.8965	0.79
0.1 µM, coculture fibroblast: H6076	0.952	0.954	0.915	0.729	0.9445	0.949	0.929	0.9231	0.9581
0.1 µM, coculture fibroblast: H6231	0.818	0.935	0.897	0.901	0.852	0.838	0.798	0.765	0.777
0.1 µM, coculture fibroblast: HADF	0.868	0.87	0.8419	0.836	0.8154	0.827	0.802	0.817	0.762
0.1 µM, coculture fibroblast: HCFa	0.848	0.825	0.779	0.764	0.723	0.716	0.679	0.64	0.593
0.1 µM, coculture fibroblast: HCPF	0.841	0.933	0.8816	0.893	0.831	0.795	0.734	0.722	0.713
0.1 µM, coculture fibroblast: HHSteC	0.9133	0.909	0.883	0.843	0.82	0.823	0.764	0.742	0.694
0.1 µM, coculture fibroblast: HMF	0.8733	0.969	0.944	0.936	0.866	0.852	0.814	0.814	0.821
0.1 µM, coculture fibroblast: HPFa	0.891	0.879	0.8567	0.808	0.77	0.765	0.706	0.7	0.642
0.1 µM, coculture fibroblast: HUF	0.903	0.851	0.835	0.78	0.757	0.757	0.731	0.739	0.745
0.1 µM, coculture fibroblast: Hs5	0.907	0.89	0.966	0.9565	0.905	0.885	0.866	0.843	0.878
0.1 µM, coculture fibroblast: Hs27A	0.8698	0.88346	0.8464	0.87514	0.8471	0.8674	0.8484	0.8502	0.7929
0.1 µM, coculture fibroblast: Hs343T	0.8915	0.812	0.9618	0.9479	0.883	0.8686	0.8167	0.80366	0.7844
0.1 µM, coculture fibroblast: WS1	0.881	0.833	0.84	0.831	0.822	0.846	0.851	0.874	0.897
1 µM, coculture fibroblast: C12385	0.9046	0.8823	0.8622	0.8031	0.751	0.733	0.701	0.673	0.657
1 µM, coculture fibroblast: H6013	0.89679	0.898	0.832	0.83	0.804	0.81	0.793	0.778	0.745
1 µM, coculture fibroblast: H6019	0.8752	0.841	0.826	0.779	0.773	0.774	0.749	0.737	0.73
1 µM, coculture fibroblast: H6076	0.9769	0.883	0.984	0.9764	0.9095	0.8829	0.832	0.804	0.853
1 µM, coculture fibroblast: H6231	0.84875	0.9897	0.9117	0.8649	0.819	0.795	0.748	0.746	0.741
1 µM, coculture fibroblast: HADF	0.898	0.881	0.83	0.824	0.781	0.774	0.741	0.727	0.692
1 µM, coculture fibroblast: HCFa	0.89143	0.858	0.8115	0.8041	0.733	0.734	0.685	0.654	0.602
1 µM, coculture fibroblast: HCPF	0.9067	0.863	0.938	0.943	0.881	0.855	0.792	0.772	0.761
1 µM, coculture fibroblast: HHSteC	0.945	0.951	0.897	0.895	0.873	0.882	0.832	0.802	0.752
1 µM, coculture fibroblast: HMF	0.872	0.845	0.9042	0.896	0.84	0.825	0.782	0.768	0.755
1 µM, coculture fibroblast: HPFa	0.929	0.929	0.885	0.845	0.813	0.796	0.738	0.729	0.658
1 µM, coculture fibroblast: HUF	0.916	0.846	0.793	0.734	0.7	0.682	0.643	0.632	0.614
1 µM, coculture fibroblast: Hs5	0.713	0.766	0.802	0.778	0.959	0.929	0.891	0.85	0.876
1 µM, coculture fibroblast: Hs27A	0.8829	0.83658	0.848	0.851	0.808	0.814	0.794	0.78	0.745
1 µM, coculture fibroblast: Hs343T	0.906	0.904	0.938	0.913	0.856	0.834	0.774	0.751	0.73
1 µM, coculture fibroblast: WS1	0.899	0.8453	0.804	0.761	0.744	0.715	0.701	0.688	0.69
10 µM, coculture fibroblast: C12385	0.888	0.89	0.889	0.882	0.8487	0.855	0.8197	0.798	0.791
10 µM, coculture fibroblast: H6013	0.873	0.896	0.873	0.875	0.852	0.871	0.846	0.838	0.8083
10 µM, coculture fibroblast: H6019	0.8973	0.9231	0.9382	0.949	0.956	0.923	0.9833	0.954	0.875
10 µM, coculture fibroblast: H6076	0.935	0.853	0.8018	0.863	0.889	0.887	0.923	0.912	0.922
10 µM, coculture fibroblast: H6231	0.889	0.9931	0.956	0.947	0.902	0.883	0.832	0.818	0.817
10 µM, coculture fibroblast: HADF	0.898	0.919	0.884	0.902	0.855	0.857	0.815	0.806	0.777
10 µM, coculture fibroblast: HCFa	0.8851	0.878	0.84	0.835	0.7757	0.77548	0.73876	0.71	0.6922
10 µM, coculture fibroblast: HCPF	0.886	0.93	0.906	0.79	0.9694	0.958	0.888	0.873	0.858
10 µM, coculture fibroblast: HHSteC	0.902	0.916	0.899	0.88	0.836	0.85	0.782	0.76	0.733
10 µM, coculture fibroblast: HMF	0.848	0.872	0.777	0.855	0.9525	0.9296	0.871	0.8485	0.82
10 µM, coculture fibroblast: HPFa	0.9446	0.9451	0.9255	0.876	0.855	0.868	0.811	0.789	0.726
10 µM, coculture fibroblast: HUF	0.922	0.912	0.906	0.867	0.854	0.849	0.827	0.827	0.835
10 µM, coculture fibroblast: Hs5	0.9963	0.775	0.749	0.7726	0.869	0.983	0.956	0.925	0.951
10 µM, coculture fibroblast: Hs27A	0.895	0.905	0.866	0.876	0.834	0.831	0.798	0.781	0.755
10 µM, coculture fibroblast: Hs343T	0.8887	0.956	0.9802	0.982	0.927	0.917	0.881	0.866	0.843
10 µM, coculture fibroblast: WS1	0.913	0.8786	0.856	0.827	0.797	0.768	0.751	0.724	0.711
100 µM, coculture fibroblast: C12385	0.8865	0.8841	0.8882	0.8593	0.857	0.865	0.866	0.846	0.847
100 µM, coculture fibroblast: H6013	0.884	0.874	0.882	0.9	0.886	0.91	0.897	0.8911	0.8715
100 µM, coculture fibroblast: H6019	0.89	0.891	0.915	0.915	0.918	0.9327	0.918	0.9163	0.9274
100 µM, coculture fibroblast: H6076	0.931	0.806	0.8438	0.759	0.854	0.735	0.759	0.896	0.873
100 µM, coculture fibroblast: H6231	0.842	0.855	0.825	0.818	0.792	0.901	0.912	0.904	0.907
100 µM, coculture fibroblast: HADF	0.9029	0.9053	0.889	0.9221	0.906	0.9245	0.9041	0.891	0.846
100 µM, coculture fibroblast: HCFa	0.869	0.85	0.819	0.837	0.81	0.828	0.8	0.792	0.7676
100 µM, coculture fibroblast: HCPF	0.927	0.851	0.876	0.968	0.891	0.904	0.901	0.889	0.876
100 µM, coculture fibroblast: HHSteC	0.907	0.9091	0.9092	0.9251	0.902	0.946	0.897	0.888	0.867
100 µM, coculture fibroblast: HMF	0.91	0.902	0.938	0.979	0.916	0.902	0.856	0.838	0.822
100 µM, coculture fibroblast: HPFa	0.921	0.922	0.913	0.892	0.881	0.919	0.883	0.891	0.866
100 µM, coculture fibroblast: HUF	0.9419	0.91	0.9035	0.872	0.88249	0.8745	0.8422	0.856	0.855
100 µM, coculture fibroblast: Hs5	0.898	0.902	0.922	0.922	0.94	0.925	0.899	0.8851	0.932
100 µM, coculture fibroblast: Hs27A	0.8614	0.8653	0.8325	0.8709	0.843	0.86	0.862	0.857	0.839
100 µM, coculture fibroblast: Hs343T	0.93223	0.732	0.956	0.933	0.923	0.915	0.862	0.843	0.838
100 µM, coculture fibroblast: WS1	0.8855	0.867	0.8629	0.8393	0.832	0.808	0.802	0.789	0.801
